Library compounds against nucleic acid targets

Data from the ROBIN nucleic acid binder screens, doi:10.1002/anie.202211358.

Targets (5′ to 3′):
T1: SAM-II riboswitch RNA pseudoknot, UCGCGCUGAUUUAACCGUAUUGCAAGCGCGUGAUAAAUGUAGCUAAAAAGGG. About 21,000 compounds screened, about 200 hits.
T2: TPP riboswitch RNA three-way junction, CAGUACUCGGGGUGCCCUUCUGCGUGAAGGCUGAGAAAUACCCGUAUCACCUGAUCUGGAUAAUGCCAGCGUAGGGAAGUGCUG. About 24,000 compounds screened, about 160 hits.
T3: PreQ1 riboswitch RNA pseudoknot, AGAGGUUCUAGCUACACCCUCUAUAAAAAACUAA. From B. subtilis. About 24,000 compounds screened, about 170 hits.

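Each compound is printed as two spots on a slide made to bind it covalently, so it has no test concentration; the read-out is fluorescence of the bound, labelled oligonucleotide. The data file lists only calls. An earlier report of the laboratory on the PreQ1, TPP and SAM-II riboswitches (doi:10.1038/s41467-019-09493-3) used 1 µM RNA for 2 h and required a mean Z-score above 3 (spot signal-to-noise against the whole library), a score well above that on a control array, and duplicate spots agreeing (coefficient of variation under 100); it then also set aside compounds that hit other targets, which this list keeps. The cut-offs behind this list may differ. The calls come from the array alone, and fixing a compound to the slide can hide its binding.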 Key: yes = hit, no = tested without a hit. Compounds were drawn at random from those tested, without regard to their results. A target missing from an entry has no call listed here. A dash means that no call is listed here.

structure | T1 | T2 | T3
COc1cccc(-c2cnc(NCc3ccc(Br)cc3)n2C)c1 | no | no | no
N#C/C(=C\c1c[nH]c2ccccc12)C(N)=O | no | no | no
Cc1cc(C(=O)OCCNC2=NS(=O)(=O)c3ccccc32)c2ccccc2n1 | no | no | no
Cn1c(=O)c2c(-c3ccc(Cl)cc3)n(C(CO)(CO)CO)cc2n(C)c1=O | - | no | no
Cc1ccc2cc(-c3noc(C)n3)c(NCc3ccc(Cl)cc3)nc2c1 | - | no | no
O=C(O)CCCCCNc1nc(-c2ccccc2)nc2ccccc12 | no | no | no
Cc1ccc2c(C(=O)N3[C@@H]4CC[C@H]3C[C@@H](O)C4)cc(C)nc2c1 | no | no | no
Cc1cc(NCc2nc3cc(F)ccc3[nH]2)nc(N)n1 | no | no | no
COc1ncc(-c2c(C)c(C3CC3(C)C)nc(N)c2C#N)cn1 (stereo unspecified) | no | no | no
Cc1cccc(-c2noc(-c3cccnc3NCc3ccc(Cl)cc3)n2)c1 | - | no | no
C=CCN(Cc1ccccc1C)C(=O)[C@@H](N)CCN | no | no | no
O=S1(=O)C[C@H](NCCc2ccccc2)[C@@H](S(=O)(=O)c2ccc(Cl)cc2)C1 | - | no | no
CCc1cccc(NC2CC(=O)N(c3ccccc3)C2=O)c1 (stereo unspecified) | no | no | no
CCOC(=O)c1ccc2c(c1)NCc1cccc(OC)c1O2 | no | no | no
Nc1ccc(Br)cc1C(NCC(=O)O)c1ccccc1Cl (stereo unspecified) | no | no | no
Cc1ccoc1C(=O)N1CCc2ncnc(N3CCCC(O)C3)c2CC1 (stereo unspecified) | no | no | no
C#CCOc1ccc(C2C(C#N)=C(N)Oc3cc(O)ccc32)cc1OC (stereo unspecified) | no | no | no
COc1ccc(CNCCC2(O)CC(C)N(C)CC2C)cc1OC (stereo unspecified) | no | no | no
CSc1nc(=S)c2[nH]c(=S)[nH]c2[nH]1 | no | no | no
O=[N+]([O-])c1ccc(Cl)cc1NCCN1CCOCC1 | no | no | no
Clc1ccc(Nc2nn3c(-c4cccs4)nnc3s2)cc1 | no | no | no
N#CC1=C(N)N(c2c(F)cccc2F)C2=C(C(=O)CCC2)C1c1ccccc1F (stereo unspecified) | no | no | no
CC(C)c1cc(NCC2CCCCCN2)nc(N)n1 (stereo unspecified) | no | no | no
CCc1nc(C)sc1CNc1nc(-c2ccncc2)nc2c1CNC2 | no | no | no
Cc1ccc2nc(N3CCCC(O)C3)c(CN(C)Cc3cc(C)no3)cc2c1 (stereo unspecified) | no | no | no
Nc1nnc(C2(NC(=O)c3cn4ccsc4n3)CCCCC2)s1 | no | no | no
O=C(O)[C@]12CCCN[C@@H]1CCN(Cc1cc(F)ccc1-n1cccn1)C2 | no | no | no
Cn1cnnc1CCC(=O)NCc1ccc(CN)cc1 | no | no | no
O=C(Nc1cnc2n1CCCC2)C1CCNCC1 | no | no | no
CCNc1nc2c(c(=O)n(C)c(=O)n2C)n1Cc1ccc(Cl)cc1 | no | no | no
Cc1ccc(C)c(NC(=O)c2nnn(Cc3ccc(F)cc3)c2N)c1 | no | no | no
COc1cc(-c2nnc(Nc3ccc4c(c3)OCO4)o2)cc(OC)c1OC | no | no | no
Cc1cccc(C)c1OCC(=O)N[C@@H](Cc1ccccc1)[C@@H](O)C[C@H](Cc1ccccc1)NC(=O)[C@H](C(C)C)N1CCCNC1=O | no | no | no
CN(CCO)Cc1nnc(C2CCN(C(=O)c3cccn3C)CC2)n1C | no | no | no
NCc1noc(-c2ccccc2Cl)n1 | no | no | no
C=CCn1cc(CNC23CC4CC(C2)CC(n2nnc(C)n2)(C4)C3)c(C)n1 | no | no | no
CN(C)c1cccc(C(=O)N2CCC(C(O)CCc3ccccc3)CC2)c1 (stereo unspecified) | no | no | no
CC[n+]1cn(CC(O)COc2ccccc2OC)c2ccccc21 (stereo unspecified) | no | no | no
COc1ccc(C)cc1-n1c(CN)n[nH]c1=O | no | no | no
N#CC1=C(N)Oc2cc(N)ccc2C12C(=O)Nc1ccc(Br)cc12 (stereo unspecified) | no | yes | no
O=S(=O)(c1ccccc1)c1nc(-c2ccc(Cl)cc2)oc1NCC1CCCO1 (stereo unspecified) | - | no | no
Cc1nn(-c2ccccc2)c(Cl)c1C1C(C#N)=C(N)Oc2n[nH]c(C)c21 (stereo unspecified) | no | no | no
CN(C)CC(O)COc1ccc(CN2CCC(C)(C#N)CC2)cc1 (stereo unspecified) | no | no | no
O[C@@H]1C[C@H](O)C12CCN(c1ncc(Cl)cc1C(F)(F)F)CC2 | no | no | no
CCCCOCCCNCc1ccc2c(c1)n(C)c(=O)n2C | - | no | no
C=CCNc1ccccc1C(=O)N(CCCCO)Cc1ccccc1 | no | no | no
Nc1nc2c(c(NCCc3nc(Cc4ccccc4)no3)n1)CCCC2 | no | no | no
O=C(O)c1cccnc1N1CCN(Cc2ccc(F)cc2)C(CCO)C1 (stereo unspecified) | no | no | no
COC(=O)c1nc(Nc2cccc(Cl)c2)oc1N | no | no | no
CC(c1cccc(-c2nc3ccccc3n2CCO)c1)N1CCCC1 (stereo unspecified) | no | no | no
CNc1ccc(-c2nc(CN3CCN(C)CC3)no2)cc1 | no | no | no
Nc1ccn(CC(O)CO)c(=O)n1 (stereo unspecified) | no | no | no
O=C(c1ccc2nnnn2c1)N1Cc2ccccc2C(O)C1 (stereo unspecified) | no | no | no
Cc1ccc(NCc2nc(-c3ccc(C)cc3)no2)cc1 | no | no | no
CCCc1cc(NCc2ccccn2)n2nc3nc(C)cc(C)c3c2n1 | - | no | no
COc1ccc(CCN(C)CCCOc2ccc(S(=O)(=O)c3[nH]c4ccccc4c3C(C)C)cc2)cc1OC | no | no | no
CCn1cc(C=Cc2nc3ccccc3c(=O)n2CCCO)c2ccccc21 | - | no | no
CC(=O)NC1=C(N)C(=O)c2ccccc2C1=O | no | no | no
COC1CCN(S(=O)(=O)N2CCC3(CC2)[C@H](O)C[C@@H]3OC)CC1 | no | no | no
C=C(C)CSc1nnc2nc(O)cc(N)n12 | no | no | no
COc1ccc(N2CC(=O)C(c3nc(C)c(C)s3)=C2N)cc1OC | - | no | no
CCOC(=O)c1nn(-c2ccc(Cl)cc2)c(=O)c2c(N)scc12 | no | no | no
Nc1ccc(S(=O)(=O)NCCC2=CCCCC2)cc1 | no | no | no
O=C1c2ccccc2C(=O)N1CCc1nc2ccccc2c(=O)n1CCNc1cccc2ccccc12 | no | no | no
NC1CCCCN(C(=O)CCc2nc(Cl)n[nH]2)C1 (stereo unspecified) | no | no | no
CCCCN1CCC(C#N)(Nc2ccccc2)CC1 | no | no | no
Cc1c(N)cccc1-c1nc2cc(Cl)ccc2o1 | no | no | no
C[C@@H]1CN(CC(=O)Nc2ccc3c(c2)Cc2cccc(-c4cc(=O)cc(N5CCOCC5)o4)c2S3)C[C@H](C)O1 | no | no | no
CCOCCN1CCN(c2nc(N)ncc2CC)CC1 | no | no | no
COc1cc(Cl)c(C)cc1NC(=O)N(CCO)Cc1ccco1 | no | no | no
N#CC1=C(N)Oc2[nH]nc(-c3ccccn3)c2C1c1c(F)cccc1Cl (stereo unspecified) | no | no | no
COc1ccc(C)cc1Cn1c(-c2nonc2N)nc2ccccc21 | no | no | no
Cc1cnc(CNC(=O)c2cccc(NCc3ccccn3)c2C)cn1 | no | no | no
CO/C(=N/C(C)C)NC(C)C | no | no | no
Cc1n[nH]c(C)c1C(N)C(=O)NCCOC12CC3CC(C)(CC(C)(C3)C1)C2 (stereo unspecified) | no | no | no
N[C@@H](Cc1ccc(O)cc1)C(=O)N1CCc2c(ncnc2N2CCOCC2)C1 | no | no | no
c1ccc(CCCN2CCN(CCOC(c3ccccc3)c3ccccc3)CC2)cc1 | no | no | no

Once more, the final 5:

{"structure": "Cc1cnc(CNC(=O)c2cccc(NCc3ccccn3)c2C)cn1", "T1": "no", "T2": "no", "T3": "no"}
{"structure": "CO/C(=N/C(C)C)NC(C)C", "T1": "no", "T2": "no", "T3": "no"}
{"structure": "Cc1n[nH]c(C)c1C(N)C(=O)NCCOC12CC3CC(C)(CC(C)(C3)C1)C2", "stereo": "stereo unspecified", "T1": "no", "T2": "no", "T3": "no"}
{"structure": "N[C@@H](Cc1ccc(O)cc1)C(=O)N1CCc2c(ncnc2N2CCOCC2)C1", "T1": "no", "T2": "no", "T3": "no"}
{"structure": "c1ccc(CCCN2CCN(CCOC(c3ccccc3)c3ccccc3)CC2)cc1", "T1": "no", "T2": "no", "T3": "no"}